Reference: paper PMC6817842
These are yes or no findings as the source states them, for the method shown. Binding seen in cells or lysates may run through a third protein. Some results given as binding are weak or reduced against the parent protein; the word gives no strength.

Biological target: NKX2-5^fb (NKX2-5 with C-terminal FLAG and biotin acceptor peptide, knock-in allele) (mouse), P42582
Test: pull-down; biotinylated knock-in TF captured on M280 streptavidin Dynabeads from 150 µg embryonic heart lysate in RIPA buffer, 4 h at 4 °C; beads washed with cold PBS; partners detected by capillary electrophoresis immunoassay (ProteinSimple Wes); called CoIP in the methods
Details: remark: other sources report otherwise

- binding: binds
B1: TBX5 (endogenous), P70326 1-518 (protein)
chain: MADTDEGFGLARTPLEPDSKDRSCDSKPESALGAPSKSPSSPQAAFTQQGMEGIKVFLHERELWLKFHEVGTEMIITKAGRRMFPSYKVKVTGLNPKTKYILLMDIVPADDHRYKFADNKWSVTGKAEPAMPGRLYVHPDSPATGAHWMRQLVSFQKLKLTNNHLDPFGHIILNSMHKYQPRLHIVKADENNGFGSKNTAFCTHVFPETAFIAVTSYQNHKITQLKIENNPFAKGFRGSDDLELHRMSRMQSKEYPVVPRSTVRHKVTSNHSPFSSETRALSTSSNLGSQYQCENGVSGPSQDLLPPPNPYPLAQEHSQIYHCTKRKDEECSSTEHPYKKPYMETSPSEEDTFYRSGYPQQQGLSTSYRTESAQRQACMYASSAPPSEPVPSLEDISCNTWPSMPSYSSCTVTTVQPMDRLPYQHFSAHFTSGPLVPRLAGMANHGSPQLGEGMFQHQTSVAHQPVVRQCGPQTGLQSPGGLQPPEFLYTHGVPRTLSPHQYHSVHGVGMVPEWSENS
modifications: here or on the partner: biotin on the BIO peptide (added by BirA)
